The values that follow come from ChEMBL document CHEMBL4513154, “CO-ADD screening of Jain University (India) compounds”.

SMILES strings stand for the structures. This is one part of the list. Potency and affinity values are given separately.

The test system of the experiment is Pseudomonas aeruginosa. As to conditions: Concentration 32 ug.mL-1; ASSAY_TEST Inhibition of Bacterial Growth; detection method Absorption (OD600); MEDIA CAMHB; plate type 384well; NBS; CORNING #3640; time 18 hr.
On to `N#Cc1ccccc1-c1ccc(Cn2c(-c3cscn3)nc3cc(Cl)ccc32)cc1`, for which the Inhibition is reported as 13.15%. Take `N#Cc1ccccc1-c1ccc(Cn2c(-c3cscn3)nc3ccc(Cl)cc32)cc1`: the Inhibition is 10.52%. For `Fc1cc(Cn2c(-c3cscn3)nc3c(Cl)cccc32)cc(C(F)(F)F)c1` the value was 7.84%. Turning to `N=C(Nc1ccccc1)c1cscn1`, the Inhibition came to 1.73%. For `N#Cc1ccc(Cn2c(-c3cscn3)nc3c(Cl)cccc32)cc1` the value was -22.73%. For `Clc1ccc2c(c1)nc(-c1cscn1)n2Cc1ccccc1` the value was 8.18%.

`CCc1ccc(-n2c(-c3sc(Nc4ccccc4)nc3N)nc3ccccc3c2=O)cc1`: the Inhibition was -11.75%.

For `Clc1cccc2[nH]c(-c3cscn3)nc12`, the Inhibition was 4.45%. As for `Nc1nc(Nc2ccc(Cl)cc2)sc1-c1nc2ccccc2c(=O)n1-c1ccccc1`, the Inhibition was found to be 12.65%. For `CCc1ccc(Nc2nc(N)c(-c3nc4ccccc4c(=O)n3-c3ccc(Cl)cc3)s2)cc1` the value was 20.49%; for `Nc1nc(Nc2ccccc2)sc1-c1nc2ccccc2c(=O)n1-c1ccc(Cl)cc1`, -20.53%. The result for `N=C(Nc1ccccc1Cl)c1cscn1` reads 77.11%.

Turning to `N#Cc1ccccc1-c1ccc(Cn2c(-c3cscn3)nc3c(Cl)cccc32)cc1`, the Inhibition is reported as -1.85%. As for `N#Cc1ccccc1-c1ccc(Cn2c(-c3cscn3)nc3ccccc32)cc1`, the Inhibition was 9.08%. Consider `CC(C)c1ccc(Cn2c(-c3cscn3)nc3c(Cl)cccc32)cc1`, for which the Inhibition was 2.02%. The result for `CCc1ccc(Nc2nc(N)c(-c3nc4ccccc4c(=O)n3-c3ccc(CC)cc3)s2)cc1` reads 19.57%; that for `Cn1c(-c2cscn2)nc2c(Cl)cccc21`, 8.59%; that for `Clc1cccc2c1nc(-c1cscn1)n2Cc1ccccc1`, 12.34%.

For the compound `Cn1c(-c2cscn2)nc2cc(Cl)ccc21`, the Inhibition came to 12.13%. Regarding `Clc1ccc2nc(-c3cscn3)n(Cc3ccccc3)c2c1`, the Inhibition was 1.4%. For `CCc1ccc(Nc2nc(N)c(-c3nc4ccccc4c(=O)n3-c3ccccc3)s2)cc1` the value was 12.66%; for `O=[N+]([O-])c1ccc(Cn2c(-c3cscn3)nc3ccccc32)cc1`, 14.88%; for `Nc1nc(Nc2ccccc2)sc1-c1nc2ccccc2c(=O)n1-c1ccccc1`, 16.07%.
